Reference: BindingDB's records for PubMed 1930610 (Eli Lilly, 1991)

Molecular target: T1, 5-hydroxytryptamine receptor 3A (Rattus norvegicus, UniProt P35563)
T1 sequence (P35563 whole entry): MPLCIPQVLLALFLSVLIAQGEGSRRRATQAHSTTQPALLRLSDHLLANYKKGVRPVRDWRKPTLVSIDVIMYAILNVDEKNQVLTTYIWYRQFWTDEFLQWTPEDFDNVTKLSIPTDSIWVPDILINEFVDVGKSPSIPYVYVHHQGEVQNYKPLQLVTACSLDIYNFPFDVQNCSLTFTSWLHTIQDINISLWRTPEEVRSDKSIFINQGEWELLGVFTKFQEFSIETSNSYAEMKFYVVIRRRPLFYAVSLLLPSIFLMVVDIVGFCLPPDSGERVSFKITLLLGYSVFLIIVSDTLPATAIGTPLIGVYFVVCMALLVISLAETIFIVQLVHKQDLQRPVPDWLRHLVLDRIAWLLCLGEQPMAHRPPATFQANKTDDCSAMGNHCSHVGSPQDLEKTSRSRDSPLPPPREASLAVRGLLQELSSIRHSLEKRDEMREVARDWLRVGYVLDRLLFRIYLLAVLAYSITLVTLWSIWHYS

## CNCC[C@@H](Oc1ccc(C(F)(F)F)cc1)c1ccccc1 [Prozac]
  Ki: > 10 µM
